Test results reported in PMC3024417.

Molecular target: T1, p120-catenin (human (endogenous in A431)) (UniProt O60716)
T1 sequence: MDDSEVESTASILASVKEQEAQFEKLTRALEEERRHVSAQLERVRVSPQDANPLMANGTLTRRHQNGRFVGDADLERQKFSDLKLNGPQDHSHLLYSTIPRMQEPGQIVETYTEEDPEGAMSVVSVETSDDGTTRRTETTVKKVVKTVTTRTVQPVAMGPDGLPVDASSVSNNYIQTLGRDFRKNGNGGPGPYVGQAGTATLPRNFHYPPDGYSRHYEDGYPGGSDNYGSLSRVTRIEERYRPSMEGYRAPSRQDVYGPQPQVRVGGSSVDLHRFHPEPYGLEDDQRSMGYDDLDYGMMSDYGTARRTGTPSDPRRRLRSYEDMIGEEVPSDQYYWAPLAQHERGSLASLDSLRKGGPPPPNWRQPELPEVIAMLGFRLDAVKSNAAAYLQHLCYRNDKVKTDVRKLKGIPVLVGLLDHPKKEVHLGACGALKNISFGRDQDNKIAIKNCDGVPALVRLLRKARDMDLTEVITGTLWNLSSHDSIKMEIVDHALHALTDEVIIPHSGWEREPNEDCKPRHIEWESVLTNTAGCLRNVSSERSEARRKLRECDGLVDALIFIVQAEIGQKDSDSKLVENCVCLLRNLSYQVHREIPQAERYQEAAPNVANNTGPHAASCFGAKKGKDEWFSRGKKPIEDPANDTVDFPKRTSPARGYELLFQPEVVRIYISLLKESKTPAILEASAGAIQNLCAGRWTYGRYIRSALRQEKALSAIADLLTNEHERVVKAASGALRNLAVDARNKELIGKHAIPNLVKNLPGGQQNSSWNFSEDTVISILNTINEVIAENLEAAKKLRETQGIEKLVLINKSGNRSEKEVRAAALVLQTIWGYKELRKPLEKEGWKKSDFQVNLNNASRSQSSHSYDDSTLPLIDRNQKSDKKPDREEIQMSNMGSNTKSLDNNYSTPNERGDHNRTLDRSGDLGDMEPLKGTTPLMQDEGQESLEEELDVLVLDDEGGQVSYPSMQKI
Assay: cross-linking + co-IP; ReCLIP: A431 cells crosslinked with 0.5 mM DSP, DTME or both, RIPA lysis; p120 captured on mAb 15D2 covalently bound to Protein G Dynabeads, 5 RIPA washes; partners eluted with 50 mM DTT (30 min, 37°C); Western blot of the eluate; control mAb 8D11 beads

## E-cadherin (human (endogenous in A431))
  binding: binds

These are yes or no findings as the source states them, for the method shown. In cells and extracts the contact can be indirect. Binding can be weak; no strength is given.
